Reference: patent US7122518B2, “Method for preventing or reducing collateral phototoxic damage to neighboring tissues during photodynamic therapy of a target tissue” (New York University, priority 2002, dated 2006)
At least one structure is not confirmed: it was looked up by name or label, or the drawing left a doubt.

Key:
[1] = test system: ARPE-19 cells; test: Protection of ARPE cells from verteporfin-induced phototoxicity (MTT viability)
Procedure: ARPE or EH cells were plated in 96 well flat bottom microplates 2×10^4 cells/well. The cells were allowed to attach to the plate surface and hypericin was added to the cultures in complete darkness (ambient light kept below <0.03 mW/cm^2 to prevent hypericin-mediated phototoxicity) for time intervals ranging from 3–6 hrs. Verteporfin was then added and was present for the last two hours of the incubation period. At the end of incubation period, the growth medium containing hypericin and verteporfin was removed and replaced with phosphate buffered saline (PBS) and then photosensitized with red light using a fiber-optic non-coherent light delivery system (SeNet Ltd, Israel) in combination with K700 broadband interference filter with central wavelengths at 700 nm and half-height bandwidth of ±40 nm (Rolyn Optics, Covina, Calif.) to selectively excite verteporfin but not hypericin (excitable at 546 and 590 nm). The cultures were then returned to standard growth medium, cultured for 24 hrs in a 37° C., 5% CO2 and cell viability then assayed by the MTT or Hemacolor assays. The fluence rate (mW/cm^2) was measured with a Model IL 1400A radiometer/photometer (International Light Inc., Newburyport, Mass.).
Two methods have been used to monitor cell viability: the MTT assay which measures reduction of MTT to formasan by mitochondria of viable cells and by the Hemacolor assay, a calorimetric microtiter assay that quantifies the amount of dye that binds to viable adherent cells (Keisari, 1992). The cells were plated in flat-bottomed 96 well plates in 200 μl medium containing the photosensitizer. MTT was added to the cells following light irradiation and the plates were incubated for three hours and then analyzed in an ELISA reader at 560 nm. Corrections were made for non-specific absorption of MTT subtracting background values generated in cell free blank wells containing medium and HY at each dose level and MTT.
In order to examine whether the red/ox properties of hypericin in the dark can impact on the phototoxic properties of verteporfin (VP), retinal pigmented epithelial cells (ARPE-19) in monolayer cultures were loaded with hypericin by exposure to 5, 10 and 20 μM of this compound for three and six hrs. Verteporfin at concentrations ranging between 0.1–1.0 μg/ml was administered to the cells for the last two hours of incubation in the dark. The cells were then washed with PBS, the medium replaced and the cultures exposed to 0.75 J/cm^2 of light irradiation at wavelengths >650 nm which coincide with the absorption spectrum of verteporfin but not with that of hypericin. Following irradiation, drug-free fresh medium was introduced, the cells incubated at 37° C. in a 5% CO2 incubator for additional 24 hrs and cell viability then monitored using the MTT assay.

[2] = test system: ARPE cells; test: Effect of hypericin on intracellular accumulation of verteporfin in ARPE cells (fluorescence); format: cell-based, human; settings: hypericin 2-20 μg/ml, VP 2-10 μg/ml for 2 hrs (FIG. 4A)
[3] = test system: endothelial EH cells; test: Effect of hypericin on intracellular accumulation of verteporfin in EH cells (fluorescence); format: cell-based, human; settings: all hypericin concentrations examined (FIG. 4B)
[4] = cited from earlier work

Structure (SMILES): Cc1cc(O)c2c(=O)c3c(O)cc(O)c4c5c(O)cc(O)c6c(=O)c7c(O)cc(C)c8c1c2c(c34)c(c78)c65 [hypericin]
- protection against VP-induced phototoxicity ([1]; cell exposure to hypericin for 3 hrs prior to photosensitization): effectively protective
- protection against VP-induced phototoxicity ([1]; cell incubation with hypericin for 6 hrs (FIG. 2B)): loss of protection
- competitive quenching protection ([1]; light dose 0.96 J/cm^2 (FIG. 2C)): highly effective
- competitive quenching protection ([1]; light dose 1.73 J/cm^2 (FIG. 2D)): the relative protection by hypericin was maintained, however, the absolute levels of protection marked by percent cell viability has declined
- verteporfin accumulation within cells in the presence of hypericin [2]: unaffected
- verteporfin accumulation within cells in the presence of hypericin [3]: unperturbed
- red/ox potential E1 [4]: −1.01 V
